Measured values: patent US20240182592A1
No constants are given. Whether binding was seen depends on the method and setting. Some results given as binding are weak or reduced against the parent protein; the word gives no strength. Sequences can lack the tags named with a protein.

B1: 1A10-Fc (antibody, human IgG1, V domains shown)
VH: QVQLVESGGGSVQAGGSLRLSCAASGYSSNVACMAWYRQAPGKEREWVATIVADFGTTNYAASVKGRFTISQDNAKNTVYLQMNSLKPEDSAMYYCAATQRGGIDWCDEINYWGQGTLVTVSS
B2: 1A11-Fc (antibody, human IgG1, V domains shown)
VH: QVQLVESGGGSVQAGGSLRLSCAASGVTFNSACMGWFRQAPGKEREGVARIETGYGGTVYADSVKGRFTISRDNAKNTVYLQMNSLKPEDTAMYYCAAKRSWCTPTWWHELDYNYWGQGTQVTVSS

What was measured:
[1] = target: cynomolgus monkey BCMA protein (cynomolgus monkey); experiment: SPR (Biacore T200)
[2] = target: cynomolgus monkey BCMA protein (cynomolgus monkey); experiment: cross-reactivity with cynomolgus monkey BCMA protein, told again in the epitope discussion

| Binder | binding [1] | binding [2] |
| --- | --- | --- |
| B1 | binds | binds |
| B2 | binds | binds |
